The supplement of paper PMC10849652
The list shows a part of the results.

By UniProt entry, the sequences of proteins in these tests, tags left out. Where a name states a change or a piece, a line headed by the entry shows the natural chain unless it says otherwise.
UniProt O00148, whole entry, looked up: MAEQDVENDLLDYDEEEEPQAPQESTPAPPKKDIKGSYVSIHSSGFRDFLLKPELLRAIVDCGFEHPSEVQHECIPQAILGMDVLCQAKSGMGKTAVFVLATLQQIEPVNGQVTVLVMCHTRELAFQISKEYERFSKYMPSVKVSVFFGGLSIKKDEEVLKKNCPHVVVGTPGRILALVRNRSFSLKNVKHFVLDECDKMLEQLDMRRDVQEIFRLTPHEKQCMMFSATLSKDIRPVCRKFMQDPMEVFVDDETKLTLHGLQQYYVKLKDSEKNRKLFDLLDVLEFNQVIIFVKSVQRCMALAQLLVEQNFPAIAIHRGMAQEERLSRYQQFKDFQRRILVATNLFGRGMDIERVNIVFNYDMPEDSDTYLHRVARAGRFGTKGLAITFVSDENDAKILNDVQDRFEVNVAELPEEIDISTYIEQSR
UniProt Q92564: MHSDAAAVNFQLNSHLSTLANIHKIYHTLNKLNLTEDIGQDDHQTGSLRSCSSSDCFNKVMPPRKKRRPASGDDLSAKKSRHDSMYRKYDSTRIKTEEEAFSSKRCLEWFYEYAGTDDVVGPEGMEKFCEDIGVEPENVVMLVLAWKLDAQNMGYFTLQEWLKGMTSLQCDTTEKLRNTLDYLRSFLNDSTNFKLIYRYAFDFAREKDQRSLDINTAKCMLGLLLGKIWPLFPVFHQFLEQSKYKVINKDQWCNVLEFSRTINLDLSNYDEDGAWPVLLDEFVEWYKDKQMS
UniProt P30046: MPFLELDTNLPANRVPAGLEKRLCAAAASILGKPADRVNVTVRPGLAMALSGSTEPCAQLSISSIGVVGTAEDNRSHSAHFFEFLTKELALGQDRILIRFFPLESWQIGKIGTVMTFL
UniProt Q9NV06: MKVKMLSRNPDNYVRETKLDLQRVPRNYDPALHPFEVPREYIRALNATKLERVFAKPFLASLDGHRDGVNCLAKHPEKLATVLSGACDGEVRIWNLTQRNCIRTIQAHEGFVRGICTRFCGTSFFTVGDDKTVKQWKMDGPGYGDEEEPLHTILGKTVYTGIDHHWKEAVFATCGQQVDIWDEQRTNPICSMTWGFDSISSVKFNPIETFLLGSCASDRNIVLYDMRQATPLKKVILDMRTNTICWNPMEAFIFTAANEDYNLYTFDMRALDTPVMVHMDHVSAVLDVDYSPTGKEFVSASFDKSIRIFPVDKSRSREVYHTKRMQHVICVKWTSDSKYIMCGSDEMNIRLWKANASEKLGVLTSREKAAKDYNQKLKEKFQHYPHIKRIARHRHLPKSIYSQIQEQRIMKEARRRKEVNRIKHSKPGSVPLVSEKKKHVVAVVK
UniProt O00273: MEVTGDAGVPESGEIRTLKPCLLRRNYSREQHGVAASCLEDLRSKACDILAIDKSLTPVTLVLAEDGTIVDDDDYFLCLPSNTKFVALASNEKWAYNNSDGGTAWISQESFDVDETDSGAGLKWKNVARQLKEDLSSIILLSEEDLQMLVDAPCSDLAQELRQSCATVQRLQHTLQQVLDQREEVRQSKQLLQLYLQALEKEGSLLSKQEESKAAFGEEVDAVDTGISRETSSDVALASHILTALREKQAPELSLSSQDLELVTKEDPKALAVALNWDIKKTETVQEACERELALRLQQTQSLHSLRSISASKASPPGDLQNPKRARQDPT
UniProt P07108: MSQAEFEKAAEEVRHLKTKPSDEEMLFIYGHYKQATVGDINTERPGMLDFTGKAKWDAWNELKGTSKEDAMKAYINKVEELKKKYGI
UniProt Q9Y2R4: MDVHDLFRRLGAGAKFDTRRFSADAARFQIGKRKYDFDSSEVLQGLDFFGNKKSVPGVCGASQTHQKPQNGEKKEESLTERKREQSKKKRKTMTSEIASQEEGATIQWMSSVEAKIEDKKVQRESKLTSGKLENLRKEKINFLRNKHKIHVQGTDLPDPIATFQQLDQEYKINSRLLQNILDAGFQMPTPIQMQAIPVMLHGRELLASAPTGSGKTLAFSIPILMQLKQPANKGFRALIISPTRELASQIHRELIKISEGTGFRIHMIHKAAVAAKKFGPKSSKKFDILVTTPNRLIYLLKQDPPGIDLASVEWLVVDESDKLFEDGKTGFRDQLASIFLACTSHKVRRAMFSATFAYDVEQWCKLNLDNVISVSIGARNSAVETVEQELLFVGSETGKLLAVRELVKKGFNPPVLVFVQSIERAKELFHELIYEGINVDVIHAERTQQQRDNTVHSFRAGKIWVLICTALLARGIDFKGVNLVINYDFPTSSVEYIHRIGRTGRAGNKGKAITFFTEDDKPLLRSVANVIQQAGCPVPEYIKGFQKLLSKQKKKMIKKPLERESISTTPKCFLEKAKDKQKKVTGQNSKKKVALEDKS
UniProt O75935, whole entry, looked up: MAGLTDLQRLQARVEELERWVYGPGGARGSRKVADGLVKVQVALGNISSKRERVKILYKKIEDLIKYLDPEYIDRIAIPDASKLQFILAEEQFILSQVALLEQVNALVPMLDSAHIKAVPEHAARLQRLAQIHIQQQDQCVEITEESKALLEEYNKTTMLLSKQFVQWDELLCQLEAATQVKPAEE
UniProt Q14203, whole entry, looked up: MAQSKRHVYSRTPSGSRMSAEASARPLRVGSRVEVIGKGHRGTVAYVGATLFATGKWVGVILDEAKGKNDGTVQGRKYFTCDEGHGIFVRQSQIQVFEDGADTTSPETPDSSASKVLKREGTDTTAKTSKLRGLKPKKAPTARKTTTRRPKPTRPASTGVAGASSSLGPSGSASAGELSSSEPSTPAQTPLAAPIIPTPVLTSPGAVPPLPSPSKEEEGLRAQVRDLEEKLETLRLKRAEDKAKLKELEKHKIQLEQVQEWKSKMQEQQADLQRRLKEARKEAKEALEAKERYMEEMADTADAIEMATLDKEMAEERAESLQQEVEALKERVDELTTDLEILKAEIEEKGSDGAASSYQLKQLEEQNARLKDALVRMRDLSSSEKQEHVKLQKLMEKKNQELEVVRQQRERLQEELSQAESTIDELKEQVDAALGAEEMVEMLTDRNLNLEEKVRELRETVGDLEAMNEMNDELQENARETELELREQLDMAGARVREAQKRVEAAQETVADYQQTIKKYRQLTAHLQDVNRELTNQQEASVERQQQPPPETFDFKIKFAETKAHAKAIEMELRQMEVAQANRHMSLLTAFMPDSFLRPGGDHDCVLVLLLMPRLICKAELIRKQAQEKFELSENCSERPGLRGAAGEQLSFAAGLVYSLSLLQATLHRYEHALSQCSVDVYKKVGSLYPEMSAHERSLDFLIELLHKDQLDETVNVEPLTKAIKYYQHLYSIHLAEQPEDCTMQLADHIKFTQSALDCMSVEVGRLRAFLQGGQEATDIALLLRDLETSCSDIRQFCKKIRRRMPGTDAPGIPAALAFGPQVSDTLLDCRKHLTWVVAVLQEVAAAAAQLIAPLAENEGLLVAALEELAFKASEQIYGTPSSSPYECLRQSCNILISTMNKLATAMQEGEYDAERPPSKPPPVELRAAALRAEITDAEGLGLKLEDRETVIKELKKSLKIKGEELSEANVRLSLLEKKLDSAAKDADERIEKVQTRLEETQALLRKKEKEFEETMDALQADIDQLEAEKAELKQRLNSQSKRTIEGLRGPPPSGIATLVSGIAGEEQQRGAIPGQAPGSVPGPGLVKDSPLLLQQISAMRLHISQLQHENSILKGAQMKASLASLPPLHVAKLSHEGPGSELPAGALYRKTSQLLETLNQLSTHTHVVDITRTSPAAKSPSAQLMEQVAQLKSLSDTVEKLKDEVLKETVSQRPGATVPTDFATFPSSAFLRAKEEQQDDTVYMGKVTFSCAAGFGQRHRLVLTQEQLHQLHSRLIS
UniProt Q9NR30: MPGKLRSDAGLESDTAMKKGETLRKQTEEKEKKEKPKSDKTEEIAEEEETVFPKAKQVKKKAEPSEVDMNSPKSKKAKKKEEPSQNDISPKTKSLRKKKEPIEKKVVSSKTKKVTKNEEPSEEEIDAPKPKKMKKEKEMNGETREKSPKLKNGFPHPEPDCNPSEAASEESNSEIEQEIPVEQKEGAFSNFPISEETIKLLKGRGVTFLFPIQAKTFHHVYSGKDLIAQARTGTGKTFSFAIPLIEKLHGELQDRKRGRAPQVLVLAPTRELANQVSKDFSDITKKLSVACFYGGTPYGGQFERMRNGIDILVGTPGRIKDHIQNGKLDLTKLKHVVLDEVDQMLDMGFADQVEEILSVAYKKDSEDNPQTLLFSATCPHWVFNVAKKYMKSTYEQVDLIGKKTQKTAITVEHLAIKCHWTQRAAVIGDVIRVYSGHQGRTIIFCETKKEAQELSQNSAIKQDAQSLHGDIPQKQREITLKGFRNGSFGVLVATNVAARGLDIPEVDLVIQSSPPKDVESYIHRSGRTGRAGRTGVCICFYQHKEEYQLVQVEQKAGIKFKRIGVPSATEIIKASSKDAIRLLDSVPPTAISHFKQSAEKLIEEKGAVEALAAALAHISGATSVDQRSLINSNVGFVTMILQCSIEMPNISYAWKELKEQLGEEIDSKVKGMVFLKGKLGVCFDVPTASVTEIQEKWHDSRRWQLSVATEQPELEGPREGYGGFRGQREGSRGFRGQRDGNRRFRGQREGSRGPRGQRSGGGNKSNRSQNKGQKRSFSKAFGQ
UniProt P11182, whole entry, looked up: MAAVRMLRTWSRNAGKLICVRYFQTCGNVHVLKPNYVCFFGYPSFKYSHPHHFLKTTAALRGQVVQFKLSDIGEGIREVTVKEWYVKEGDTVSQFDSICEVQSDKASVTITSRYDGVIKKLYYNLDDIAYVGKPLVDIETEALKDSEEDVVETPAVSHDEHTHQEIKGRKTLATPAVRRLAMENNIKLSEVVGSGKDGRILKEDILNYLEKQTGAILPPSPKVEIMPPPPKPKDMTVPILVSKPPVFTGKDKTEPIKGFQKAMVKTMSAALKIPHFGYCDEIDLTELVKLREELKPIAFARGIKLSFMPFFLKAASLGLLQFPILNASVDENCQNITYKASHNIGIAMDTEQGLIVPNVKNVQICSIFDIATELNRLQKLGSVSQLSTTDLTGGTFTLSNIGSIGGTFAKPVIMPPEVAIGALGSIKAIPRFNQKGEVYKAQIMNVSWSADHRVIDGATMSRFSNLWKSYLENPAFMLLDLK
UniProt Q5T1V6: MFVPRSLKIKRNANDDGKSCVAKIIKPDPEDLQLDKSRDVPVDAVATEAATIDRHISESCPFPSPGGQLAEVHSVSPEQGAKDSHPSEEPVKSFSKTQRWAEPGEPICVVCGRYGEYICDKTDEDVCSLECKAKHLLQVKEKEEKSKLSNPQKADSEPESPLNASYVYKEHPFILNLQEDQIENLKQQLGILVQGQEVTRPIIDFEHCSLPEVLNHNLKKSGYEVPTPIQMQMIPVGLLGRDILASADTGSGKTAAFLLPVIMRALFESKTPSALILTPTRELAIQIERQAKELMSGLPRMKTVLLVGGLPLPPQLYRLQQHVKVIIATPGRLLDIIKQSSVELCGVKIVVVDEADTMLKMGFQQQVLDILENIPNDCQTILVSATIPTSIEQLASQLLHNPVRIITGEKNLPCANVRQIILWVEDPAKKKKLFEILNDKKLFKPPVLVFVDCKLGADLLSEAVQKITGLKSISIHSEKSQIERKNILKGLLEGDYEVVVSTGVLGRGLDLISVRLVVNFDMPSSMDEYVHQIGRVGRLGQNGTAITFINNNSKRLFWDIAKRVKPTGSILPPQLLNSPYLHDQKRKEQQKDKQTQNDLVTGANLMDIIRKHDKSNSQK
UniProt Q7Z4W1: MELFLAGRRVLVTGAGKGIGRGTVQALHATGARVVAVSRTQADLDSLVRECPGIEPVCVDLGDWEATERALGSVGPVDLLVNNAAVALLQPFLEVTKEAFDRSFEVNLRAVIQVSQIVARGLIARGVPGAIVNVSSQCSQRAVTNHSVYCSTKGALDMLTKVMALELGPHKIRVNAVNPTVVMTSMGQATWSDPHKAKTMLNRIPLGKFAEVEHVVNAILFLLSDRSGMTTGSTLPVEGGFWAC
UniProt Q6PI48: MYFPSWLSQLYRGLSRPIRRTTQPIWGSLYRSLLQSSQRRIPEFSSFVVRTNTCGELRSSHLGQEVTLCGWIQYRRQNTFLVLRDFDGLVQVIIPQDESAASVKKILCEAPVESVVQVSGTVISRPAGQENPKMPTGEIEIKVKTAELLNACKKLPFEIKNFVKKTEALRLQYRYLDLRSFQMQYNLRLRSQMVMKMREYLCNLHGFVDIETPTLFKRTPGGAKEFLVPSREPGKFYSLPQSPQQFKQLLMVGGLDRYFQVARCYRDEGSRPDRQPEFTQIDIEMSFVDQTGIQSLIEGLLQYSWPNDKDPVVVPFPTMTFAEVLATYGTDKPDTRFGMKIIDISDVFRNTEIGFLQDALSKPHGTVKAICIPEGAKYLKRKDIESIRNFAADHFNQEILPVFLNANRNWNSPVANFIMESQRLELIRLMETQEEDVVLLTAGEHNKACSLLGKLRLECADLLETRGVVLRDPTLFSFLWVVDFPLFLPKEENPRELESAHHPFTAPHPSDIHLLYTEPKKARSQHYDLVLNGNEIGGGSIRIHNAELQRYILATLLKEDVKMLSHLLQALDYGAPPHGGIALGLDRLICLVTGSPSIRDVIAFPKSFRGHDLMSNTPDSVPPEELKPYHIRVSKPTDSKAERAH

Columns and labels:
Assay in all cases: log2 fold change, soluble protein after heating vs DMSO (PISA); higher = thermal stabilisation; K562 lysate, 10 uM; active = over 0.2 and 3.5 SD of the protein, either way, in both replicates (recomputed)
[1] = compound: NCC(=O)Nc1ccc(-n2nc(C(F)(F)F)cc2-c2ccc3c(ccc4ccccc43)c2)cc1
Outline: (§1)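 Pellets of K562 cells were dounce-homogenised in PBS pH 7.4 with 1 mM MgCl2, and the crude extract was held at 1 mg/mL protein for a 30 min treatment with 10 μM compound. Aliquots were heated for 3 min over 48°C-58°C and pooled before NP-40 was added to 0.5% at 4°C. The supernatant from 21,000xg for 90 min was quantified by TMTpro 16plex LC-MS/MS with channel sums equalised. Values are reported from duplicates as log-two fold change in thermal stability relative to solvent controls.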

vorinostat = compound: O=C(CCCCCCC(=O)Nc1ccccc1)NO [vorinostat]
Outline: as §1

silmitasertib = compound: O=C(O)c1ccc2c(c1)nc(Nc1cccc(Cl)c1)c1ccncc12 [silmitasertib]
Outline: as §1

[2] = compound: O=C1NC(=O)C(c2cnc3ccccn23)=C1c1cn2c3c(cc(F)cc13)CN(C(=O)N1CCCCC1)CC2
Outline: as §1

entospletinib = compound: c1cn2cc(-c3ccc4cn[nH]c4c3)nc(Nc3ccc(N4CCOCC4)cc3)c2n1 [entospletinib]
Outline: as §1

Measured: log2 fold change

DDX39A (UniProt O00148)
inactive: [1] 0.017 | silmitasertib 0.017 | [2] 0.036 | entospletinib -0.033
active: vorinostat -0.383

CZIB (UniProt Q9NWV4)
inactive: [1] 0.009 | vorinostat 0.112 | silmitasertib -0.026 | [2] -0.033 | entospletinib 0.008

DCUN1D4 isoform 3 (UniProt Q92564)
inactive: [1] 0.066 | vorinostat 0.128 | silmitasertib -0.031 | [2] -0.121 | entospletinib -0.096

DAG1 (UniProt Q14118)
inactive: [1] -0.057 | vorinostat 0.058 | silmitasertib 0 | [2] 0.006 | entospletinib -0.039

DDAH2 (UniProt O95865)
inactive: [1] -0.124 | vorinostat 0.091 | silmitasertib 0.002 | [2] -0.026 | entospletinib -0.048

DBN1 (UniProt Q16643)
inactive: [1] 0.021 | vorinostat -0.099 | silmitasertib 0.02 | [2] 0.012 | entospletinib -0.01

CYP2S1 isoform 2 (UniProt Q96SQ9)
inactive: [1] 0.014 | vorinostat 0.067 | silmitasertib -0.027 | [2] -0.025 | entospletinib 0.055

Two records picked at random from the list so far, as already listed:
DCUN1D4 isoform 3 (UniProt Q92564)
inactive: [1] 0.066 | vorinostat 0.128 | silmitasertib -0.031 | [2] -0.121 | entospletinib -0.096

CYP2S1 isoform 2 (UniProt Q96SQ9)
inactive: [1] 0.014 | vorinostat 0.067 | silmitasertib -0.027 | [2] -0.025 | entospletinib 0.055

More records follow:

DDX10 (UniProt Q13206)
inactive: [1] -0.085 | vorinostat -0.073 | silmitasertib 0.058 | [2] 0.031 | entospletinib -0.01

DCAF15 (UniProt Q66K64)
inactive: [1] 0.125 | vorinostat -0.24 | silmitasertib 0.071 | [2] 0.006 | entospletinib -0.01

DDT (UniProt P30046)
inactive: [1] -0.026 | vorinostat 0.092 | silmitasertib -0.011 | [2] 0.042 | entospletinib -0.064

DCK (UniProt P27707)
inactive: [1] 0.009 | vorinostat 0.179 | silmitasertib -0.018 | [2] 0.036 | entospletinib 0.008

DDX27 (UniProt Q96GQ7)
inactive: [1] -0.006 | vorinostat 0.025 | silmitasertib 0.015 | [2] 0.016 | entospletinib 0.011

DDX18 (UniProt Q9NVP1)
inactive: [1] 0 | vorinostat 0.071 | silmitasertib 0.048 | [2] -0.022 | entospletinib 0.008

DENND10 (UniProt Q8TCE6)
inactive: [1] 0.032 | vorinostat -0.113 | silmitasertib -0.015 | [2] -0.055 | entospletinib 0.012

DAZAP1 (UniProt Q96EP5)
inactive: [1] 0.032 | vorinostat -0.031 | silmitasertib 0.014 | [2] 0.032 | entospletinib -0.001

DEF8 (UniProt Q6ZN54)
inactive: [1] 0.023 | vorinostat -0.059 | silmitasertib -0.004 | [2] 0.005 | entospletinib 0.052

DDX56 (UniProt Q9NY93)
inactive: [1] 0.026 | vorinostat -0.048 | silmitasertib 0.005 | [2] -0.019 | entospletinib 0.031

DECR2 (UniProt Q9NUI1)
inactive: [1] -0.038 | vorinostat 0.168 | silmitasertib -0.021 | [2] 0.067 | entospletinib -0.012

DCUN1D1 (UniProt Q96GG9)
inactive: [1] 0.006 | vorinostat 0.161 | silmitasertib 0.021 | [2] -0.005 | entospletinib 0.019

DCAF13 (UniProt Q9NV06)
inactive: [1] -0.023 | vorinostat 0.048 | silmitasertib -0.076 | [2] 0 | entospletinib -0.032

DFFA (UniProt O00273)
inactive: [1] -0.004 | vorinostat 0.033 | silmitasertib 0.006 | [2] 0.016 | entospletinib 0.022

DDX6 (UniProt P26196)
inactive: [1] -0.002 | vorinostat -0.022 | silmitasertib 0.018 | [2] -0.004 | entospletinib -0.005

DBI isoform 5 (UniProt P07108)
inactive: [1] -0.095 | vorinostat 0.162 | silmitasertib -0.07 | [2] 0.039 | entospletinib -0.124

DDX52 (UniProt Q9Y2R4)
inactive: [1] -0.004 | vorinostat -0.188 | silmitasertib -0.04 | [2] -0.086 | entospletinib 0.018

DCTPP1 (UniProt Q9H773)
inactive: [1] -0.023 | vorinostat 0.152 | silmitasertib 0.034 | [2] -0.017 | entospletinib -0.118

DCTN3 (UniProt O75935)
inactive: [1] -0.056 | vorinostat -0.016 | silmitasertib 0.046 | [2] -0.042 | entospletinib -0.015

DCTN1 (UniProt Q14203)
inactive: [1] 0.011 | silmitasertib -0.003 | [2] 0.012 | entospletinib 0.001
active: vorinostat -0.261

DDX21 (UniProt Q9NR30)
inactive: [1] 0.021 | vorinostat 0.06 | silmitasertib 0.041 | [2] 0.036 | entospletinib -0.005

DDX19A (UniProt Q9NUU7)
inactive: [1] 0.023 | vorinostat -0.045 | silmitasertib -0.032 | [2] -0.004 | entospletinib -0.013

DBT (UniProt P11182)
inactive: [1] -0.031 | vorinostat 0.045 | silmitasertib -0.015 | [2] 0.014 | entospletinib 0

DEGS1 (UniProt O15121)
inactive: [1] -0.027 | vorinostat 0.157 | silmitasertib -0.095 | [2] 0.009 | entospletinib -0.024

DDB2 (UniProt Q92466)
inactive: [1] 0.054 | vorinostat 0.048 | silmitasertib -0.022 | [2] -0.002 | entospletinib 0.019

DEF6 (UniProt Q9H4E7)
inactive: [1] 0.085 | silmitasertib 0.032 | [2] -0.045 | entospletinib 0.022
active: vorinostat -0.416

DDX46 (UniProt Q7L014)
inactive: [1] 0.013 | vorinostat -0.151 | silmitasertib 0.028 | [2] 0.007 | entospletinib 0.02

DCAF8 (UniProt Q5TAQ9)
inactive: [1] 0.01 | vorinostat -0.028 | silmitasertib 0.005 | [2] -0.019 | entospletinib -0.021

DEK (UniProt P35659)
inactive: [1] 0.016 | vorinostat 0.019 | silmitasertib -0.018 | [2] 0.026 | entospletinib 0.019

DDX19B (UniProt Q9UMR2)
inactive: [1] 0.014 | vorinostat -0.132 | silmitasertib 0.031 | [2] -0.019 | entospletinib 0.01

DDI2 isoform 3 (UniProt Q5TDH0)
inactive: [1] -0.003 | vorinostat 0.075 | silmitasertib 0.001 | [2] 0.006 | entospletinib 0

DCAF4L2 (UniProt Q8NA75)
inactive: [1] 0.306 | vorinostat 0.102 | silmitasertib 0.015 | [2] -0.039 | entospletinib -0.063

CYP51A1 (UniProt Q16850)
active: [2] 0.864
inactive: [1] -0.065 | vorinostat 0.017 | silmitasertib -0.084 | entospletinib 0.024

DDX55 (UniProt Q8NHQ9)
inactive: [1] -0.036 | vorinostat -0.147 | silmitasertib 0.059 | [2] -0.004 | entospletinib -0.005

DBF4 (UniProt Q9UBU7)
inactive: [1] 0.059 | vorinostat -0.226 | silmitasertib -0.138 | [2] 0.028 | entospletinib 0.002

DCTN2 isoform 3 (UniProt Q13561)
inactive: [1] -0.008 | vorinostat 0.087 | silmitasertib -0.009 | [2] -0.02 | entospletinib -0.01

DERL1 (UniProt Q9BUN8)
inactive: [1] -0.009 | vorinostat 0.083 | silmitasertib -0.016 | [2] -0.006 | entospletinib -0.001

DBR1 (UniProt Q9UK59)
inactive: [1] -0.015 | vorinostat 0.038 | silmitasertib 0.021 | [2] -0.041 | entospletinib -0.007

DENND6A (UniProt Q8IWF6)
inactive: [1] -0.049 | silmitasertib 0.1 | [2] -0.07 | entospletinib -0.051
active: vorinostat -0.38

DDX54 isoform 2 (UniProt Q8TDD1)
inactive: [1] 0.131 | vorinostat 0.066 | silmitasertib -0.006 | [2] -0.008 | entospletinib -0.009

DAGLB (UniProt Q8NCG7)
inactive: [1] 0.024 | vorinostat 0.062 | silmitasertib 0.006 | [2] -0.027 | entospletinib 0.043

DDX59 (UniProt Q5T1V6)
inactive: [1] -0.033 | vorinostat -0.213 | silmitasertib -0.054 | [2] 0.001 | entospletinib 0.023

DDB1 (UniProt Q16531)
inactive: [1] 0.003 | vorinostat 0.101 | silmitasertib -0.007 | [2] -0.022 | entospletinib 0.01

DCXR (UniProt Q7Z4W1)
inactive: [1] -0.01 | vorinostat -0.083 | silmitasertib 0.023 | [2] -0.049 | entospletinib 0.012

DCPS (UniProt Q96C86)
inactive: [1] -0.009 | vorinostat 0.017 | silmitasertib 0.004 | [2] 0.01 | entospletinib -0.027

DARS2 (UniProt Q6PI48)
inactive: [1] 0.039 | vorinostat -0.172 | silmitasertib 0.027 | [2] 0.002 | entospletinib -0.012
